Data published in article PMC11870507.
These are yes or no findings as the source states them, for the method shown. Binding can be weak; no strength is given. For some of these results: In cells and extracts the contact can be indirect.

Chains of the proteins cited; added tags and fusions are not shown. Lines headed by an entry give the natural chain unless they say otherwise; changes in a name come on top.
UniProt K4D9Y4: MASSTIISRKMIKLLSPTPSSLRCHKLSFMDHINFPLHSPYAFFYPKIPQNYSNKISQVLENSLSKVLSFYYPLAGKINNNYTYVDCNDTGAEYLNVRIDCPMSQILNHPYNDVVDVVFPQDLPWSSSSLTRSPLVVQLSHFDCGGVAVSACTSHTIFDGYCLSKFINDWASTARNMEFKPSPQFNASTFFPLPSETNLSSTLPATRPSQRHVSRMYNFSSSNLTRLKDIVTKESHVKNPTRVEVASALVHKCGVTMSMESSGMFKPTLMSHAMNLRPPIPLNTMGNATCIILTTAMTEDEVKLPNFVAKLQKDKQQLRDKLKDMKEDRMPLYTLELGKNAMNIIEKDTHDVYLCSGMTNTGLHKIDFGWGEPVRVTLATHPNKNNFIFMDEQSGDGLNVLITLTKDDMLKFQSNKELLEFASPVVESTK
UniProt K4DBH0: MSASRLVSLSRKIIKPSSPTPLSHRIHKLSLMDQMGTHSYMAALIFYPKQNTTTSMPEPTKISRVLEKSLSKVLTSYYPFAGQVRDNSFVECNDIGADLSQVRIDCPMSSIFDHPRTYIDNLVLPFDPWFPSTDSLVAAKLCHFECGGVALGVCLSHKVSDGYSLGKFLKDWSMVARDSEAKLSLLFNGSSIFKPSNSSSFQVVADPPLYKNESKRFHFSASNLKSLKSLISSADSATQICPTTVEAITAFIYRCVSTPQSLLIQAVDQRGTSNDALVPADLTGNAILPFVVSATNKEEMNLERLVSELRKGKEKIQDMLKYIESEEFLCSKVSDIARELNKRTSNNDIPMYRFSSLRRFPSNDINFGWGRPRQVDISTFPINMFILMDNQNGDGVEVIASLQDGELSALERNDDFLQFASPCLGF
UniProt A0A3Q7EQZ9: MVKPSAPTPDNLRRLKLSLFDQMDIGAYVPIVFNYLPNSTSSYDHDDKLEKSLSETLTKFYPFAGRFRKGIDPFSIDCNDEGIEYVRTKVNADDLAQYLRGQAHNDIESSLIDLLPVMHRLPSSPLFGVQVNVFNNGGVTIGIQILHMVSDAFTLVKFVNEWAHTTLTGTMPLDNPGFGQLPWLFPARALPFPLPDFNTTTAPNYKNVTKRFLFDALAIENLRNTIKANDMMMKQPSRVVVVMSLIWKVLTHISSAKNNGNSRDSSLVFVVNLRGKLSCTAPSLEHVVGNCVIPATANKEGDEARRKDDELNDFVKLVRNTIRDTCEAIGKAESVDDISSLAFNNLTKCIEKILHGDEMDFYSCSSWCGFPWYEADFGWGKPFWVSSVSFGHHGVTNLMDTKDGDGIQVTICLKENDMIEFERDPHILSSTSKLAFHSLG
UniProt A0A0U3JNE4: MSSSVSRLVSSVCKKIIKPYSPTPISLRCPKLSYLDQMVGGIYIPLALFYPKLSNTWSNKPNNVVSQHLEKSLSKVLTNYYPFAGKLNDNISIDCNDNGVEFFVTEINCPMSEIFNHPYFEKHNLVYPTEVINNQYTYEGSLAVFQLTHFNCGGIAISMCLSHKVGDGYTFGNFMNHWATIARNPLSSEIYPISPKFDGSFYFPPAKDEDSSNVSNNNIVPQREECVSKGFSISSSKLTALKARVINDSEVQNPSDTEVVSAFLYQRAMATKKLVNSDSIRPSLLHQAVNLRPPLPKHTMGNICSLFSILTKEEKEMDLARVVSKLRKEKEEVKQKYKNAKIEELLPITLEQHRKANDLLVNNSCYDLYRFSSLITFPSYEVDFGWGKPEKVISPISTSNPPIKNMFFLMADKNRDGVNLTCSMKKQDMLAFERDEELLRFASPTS

Key:
[1] = molecular target: nLUC-SlASAT3 (Solanum lycopersicum (tomato)) (UniProt K4D9Y4); experiment: split reporter; split-luciferase assay quantified (relative luciferase units) with protein extracted from infiltrated N. benthamiana leaves
[2] = molecular target: nLUC-SlASAT1 (Solanum lycopersicum (tomato)) (UniProt K4DBH0); experiment: as above
[3] = molecular target: nLUC-SlASAT3 (Solanum lycopersicum (tomato)) (UniProt K4D9Y4); experiment: split reporter; split-luciferase complementation imaging of N. benthamiana leaves co-infiltrated with nLUC and cLUC constructs, 48-72 h after infiltration, 0.25 mM coelenterazine sprayed on, luminescence recorded with a Photek 216
[4] = molecular target: nLUC-SlASAT1 (Solanum lycopersicum (tomato)) (UniProt K4DBH0); experiment: as above
[5] = molecular target: HA-tagged SlASAT1 (Solanum lycopersicum (tomato)) (UniProt K4DBH0); experiment: co-IP; pairs of HA- and Flag-tagged proteins co-expressed in N. benthamiana leaves; IP with magnetic beads and blot (Supplementary Fig. 10)
[6] = molecular target: HA-tagged SlASAT1 (Solanum lycopersicum (tomato)) (UniProt K4DBH0); experiment: SEC; immunoprecipitated SlASAT1-4 complex from N. benthamiana eluted under non-denaturing conditions with HA peptide, Superdex 200 3.2/300, 50 mM Tris-HCl, 150 mM NaCl, pH 7.4; peak fractions blotted with HA and Flag antibodies

Measured: binding

SlASAT4-cLUC (from UniProt A0A3Q7EQZ9) (enzyme)
binds: [1] | [2] | [3] | [4]

SlASAT2-cLUC (from UniProt A0A0U3JNE4) (enzyme)
binds: [1] | [2] | [3] | [4]

Flag-tagged SlASAT4 (from UniProt A0A3Q7EQZ9) (enzyme)
binds: [5] | [6]
